Laboratory results as given in publication PMC12524865.
Results are given in words; binding and its absence hold for the method and conditions named. In cells and extracts the contact can be indirect. Some entries that bind do so weakly or less than the wild type. Where a sequence is shown, tags or fusion partners need not be part of it.

Molecular target: T1, 6Myc-TRIM48 (human) (UniProt Q8IWZ4)
T1 sequence: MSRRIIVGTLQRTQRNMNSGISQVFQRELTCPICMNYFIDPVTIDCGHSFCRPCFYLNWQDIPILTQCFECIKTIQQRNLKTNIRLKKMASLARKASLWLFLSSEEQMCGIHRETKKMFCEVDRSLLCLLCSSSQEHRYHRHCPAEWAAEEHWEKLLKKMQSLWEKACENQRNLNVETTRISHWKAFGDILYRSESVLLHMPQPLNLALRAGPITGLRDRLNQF
Assay: co-IP; HEK293A cells transfected with the plasmids, treated with 5 uM MG132 for 6 h; lysed in IP lysis buffer (20 mM Tris-HCl pH 7.4, 150 mM NaCl, 10 mM EDTA, 1% Triton-X100, 1% sodium deoxycholate); immunoprecipitated with anti-Myc antibody, immunoblot

- binding: binds
B1: Flag-FBXO17 (protein, UniProt Q96EF6 1-278)
chain: MGARLSRRRLPADPSLALDALPPELLVQVLSHVPPRSLVTRCRPVCRAWRDIVDGPTVWLLQLARDRSAEGRALYAVAQRCLPSNEDKEEFPLCALARYCLRAPFGRNLIFNSCGEQGFRGWEVEHGGNGWAIEKNLTPVPGAPSQTCFVTSFEWCSKRQLVDLVMEGVWQELLDSAQIEICVADWWGARENCGCVYQLRVRLLDVYEKEVVKFSASPDPVLQWTERGCRQVSHVFTNFGKGIRYVSFEQYGRDVSSWVGHYGALVTHSSVRVRIRLS
